From paper PMC12040169 (PLOS Biology, 2025) come the findings set out here.

Some of the results follow.

The assay relates to T1, CTL2-GFP (C. trachomatis L2/434/Bu, GFP-expressing).
T1 construct: L2/434/Bu, GFP-expressing
Set-up: species or system HeLa; Intracellular C. trachomatis growth in HeLa cells, bulk GFP fluorescence relative to DMSO. The following applies: bulk GFP, single well; 28.5 h, 10 µM; inhibitor.
Regarding `Cc1nc(O)cc(C2CCCN(C(=O)c3scc4c3CCCC4)C2)n1` (stereo not drawn) [CBK306969], the “% of control remaining” value is listed as 152.388%.
As for `CC(=O)N1CCc2sccc2C1c1ccc(NC(=O)C2CC2)cc1` (stereo not drawn) [CBK282907], the “% of control remaining” value is 106.602%.
With `O=C(NC1CC1)[C@H]1CN2CCC1C[C@@H]2Cn1cc(-c2cccc(O)c2)nn1` (stereo partly drawn) [CBK288738] the figure was 158.767%.
For the compound `CCOC(=O)N1CCN(C(=O)c2oc3ccccc3c2C)CC1` [CBK023696], the “% of control remaining” value is listed as 126.864%.
Consider `CCCC1CCN(CC2C=Cc3cc(-c4ccc(S(C)(=O)=O)cc4)ccc3O2)CC1` (stereo not drawn) [CBK158647], for which the “% of control remaining” value is on record as 135.452%.
In the case of `O=C(c1ccccc1)c1ccc(CNC(=O)C2(c3ccccc3)CCCC2)cc1` [CBK161526], the “% of control remaining” value came out at 85.5237%.
Turning to `CC(C)Nc1nccnc1OCCN1CCOCC1` [CBK113410], the “% of control remaining” value amounted to 140.592%.
Take `COc1ccc2oc(C(=O)NC(C)(C)CN3CCCCC3)cc2c1` [CBK282053]: the “% of control remaining” value is reported as 140.756%.
`COc1ccc(OCCCCCN2CCC3(CC2)OCCc2c3[nH]c3ccccc23)cc1` [CBK113517T]: the “% of control remaining” value is 49.748%.
`CC(C)(C)OC(=O)N1CCN(c2ccc(N)c3ccccc23)CC1` [CBK003162]: the “% of control remaining” value worked out at 97.2148%.
With `O=C(Cc1c[nH]c2ccccc12)N1CCCC1c1cccc(Cc2ccccc2F)n1` (stereo not drawn) [CBK285799] the figure was 131.205%.
Consider `CC(C)CC1(C(CN2C(=O)c3ccccc3C2=O)C(=O)NO)CCN(CCc2ccccc2)C1=O` (stereo not drawn) [CBK013029], for which the “% of control remaining” value is 112.187%.
Then `CC(=O)Nc1ccc(-c2cc(Nc3cccc(N(C)C)c3)ncn2)cc1` [CBK091017], with 172.239%; and `O=C(Nc1cccc(N2CCNCC2)c1)c1cnccn1` [CBK029470T], with 131.268%.
Then `Cc1ccnn1CCNC(=O)CCc1ccc(Cl)cc1` [CBK283182], with 81.5453%; and `COc1ccc(Br)cc1CN1CCN(Cc2cccc([N+](=O)[O-])c2)CC1` [CBK263347], with 100%; and `O=C(CN1C(=O)CCC1=O)NCCc1ccccc1` [CBK262326], with 106.467%.
With `O=C(Oc1ccc(N(C(=O)c2ccncc2)S(=O)(=O)c2cccc3cccnc23)c2ccccc12)c1ccncc1` [CBK266915] the figure was 99.6878%; with `Cc1ccc(NC(=O)CCC(=O)N2CCC3(CC2)CC(=O)c2ccccc2O3)cc1` [CBK156524], 99.7798%; with `O=C(CN1C(=O)c2ccccc2C1=O)Nc1cccc(C(=O)O)c1` [CBK287040], 106.74%.
Turning to `COC(=O)c1cn([C@H]2CO[C@H]3[C@@H]2OC[C@@H]3NC(=O)C2CC2)nn1` [CBK289497], the “% of control remaining” value amounted to 137.911%.
